In the supplement of paper PMC12823440, “Inhibitors supercharge kinase turnover through native proteolytic circuits” (Nature, 2025):
The other results are listed elsewhere or left out. The calls rarely recur for the same compound in another form.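 In K562 cells expressing nanoluciferase-fused kinases, luminescence was recorded at 4 h intervals between 2 and 18 h, normalized as percent of control with DMSO at 100% and a positive control at 0%. A significant (2 sigma) signal drop marks a time point as decreased. The authors' rule for a hit is not shown and takes in more than the number of time points.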

Amino acid sequences for entries named in this document (tags omitted). A change or cut given only in a name is not applied to a line headed by its entry.
UniProt P31749: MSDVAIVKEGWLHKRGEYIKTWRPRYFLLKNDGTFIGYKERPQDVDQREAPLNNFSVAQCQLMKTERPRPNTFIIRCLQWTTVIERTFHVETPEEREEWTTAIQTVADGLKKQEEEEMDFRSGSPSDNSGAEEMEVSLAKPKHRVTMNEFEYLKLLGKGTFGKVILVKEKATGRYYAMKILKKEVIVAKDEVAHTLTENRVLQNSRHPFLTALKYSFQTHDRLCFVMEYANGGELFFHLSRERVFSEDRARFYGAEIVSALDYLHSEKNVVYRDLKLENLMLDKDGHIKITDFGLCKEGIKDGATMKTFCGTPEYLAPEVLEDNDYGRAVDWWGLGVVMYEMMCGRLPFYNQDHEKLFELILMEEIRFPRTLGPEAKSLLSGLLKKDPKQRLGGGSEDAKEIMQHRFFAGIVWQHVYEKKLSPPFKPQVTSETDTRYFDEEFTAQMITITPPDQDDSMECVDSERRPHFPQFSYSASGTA
UniProt Q9UM73: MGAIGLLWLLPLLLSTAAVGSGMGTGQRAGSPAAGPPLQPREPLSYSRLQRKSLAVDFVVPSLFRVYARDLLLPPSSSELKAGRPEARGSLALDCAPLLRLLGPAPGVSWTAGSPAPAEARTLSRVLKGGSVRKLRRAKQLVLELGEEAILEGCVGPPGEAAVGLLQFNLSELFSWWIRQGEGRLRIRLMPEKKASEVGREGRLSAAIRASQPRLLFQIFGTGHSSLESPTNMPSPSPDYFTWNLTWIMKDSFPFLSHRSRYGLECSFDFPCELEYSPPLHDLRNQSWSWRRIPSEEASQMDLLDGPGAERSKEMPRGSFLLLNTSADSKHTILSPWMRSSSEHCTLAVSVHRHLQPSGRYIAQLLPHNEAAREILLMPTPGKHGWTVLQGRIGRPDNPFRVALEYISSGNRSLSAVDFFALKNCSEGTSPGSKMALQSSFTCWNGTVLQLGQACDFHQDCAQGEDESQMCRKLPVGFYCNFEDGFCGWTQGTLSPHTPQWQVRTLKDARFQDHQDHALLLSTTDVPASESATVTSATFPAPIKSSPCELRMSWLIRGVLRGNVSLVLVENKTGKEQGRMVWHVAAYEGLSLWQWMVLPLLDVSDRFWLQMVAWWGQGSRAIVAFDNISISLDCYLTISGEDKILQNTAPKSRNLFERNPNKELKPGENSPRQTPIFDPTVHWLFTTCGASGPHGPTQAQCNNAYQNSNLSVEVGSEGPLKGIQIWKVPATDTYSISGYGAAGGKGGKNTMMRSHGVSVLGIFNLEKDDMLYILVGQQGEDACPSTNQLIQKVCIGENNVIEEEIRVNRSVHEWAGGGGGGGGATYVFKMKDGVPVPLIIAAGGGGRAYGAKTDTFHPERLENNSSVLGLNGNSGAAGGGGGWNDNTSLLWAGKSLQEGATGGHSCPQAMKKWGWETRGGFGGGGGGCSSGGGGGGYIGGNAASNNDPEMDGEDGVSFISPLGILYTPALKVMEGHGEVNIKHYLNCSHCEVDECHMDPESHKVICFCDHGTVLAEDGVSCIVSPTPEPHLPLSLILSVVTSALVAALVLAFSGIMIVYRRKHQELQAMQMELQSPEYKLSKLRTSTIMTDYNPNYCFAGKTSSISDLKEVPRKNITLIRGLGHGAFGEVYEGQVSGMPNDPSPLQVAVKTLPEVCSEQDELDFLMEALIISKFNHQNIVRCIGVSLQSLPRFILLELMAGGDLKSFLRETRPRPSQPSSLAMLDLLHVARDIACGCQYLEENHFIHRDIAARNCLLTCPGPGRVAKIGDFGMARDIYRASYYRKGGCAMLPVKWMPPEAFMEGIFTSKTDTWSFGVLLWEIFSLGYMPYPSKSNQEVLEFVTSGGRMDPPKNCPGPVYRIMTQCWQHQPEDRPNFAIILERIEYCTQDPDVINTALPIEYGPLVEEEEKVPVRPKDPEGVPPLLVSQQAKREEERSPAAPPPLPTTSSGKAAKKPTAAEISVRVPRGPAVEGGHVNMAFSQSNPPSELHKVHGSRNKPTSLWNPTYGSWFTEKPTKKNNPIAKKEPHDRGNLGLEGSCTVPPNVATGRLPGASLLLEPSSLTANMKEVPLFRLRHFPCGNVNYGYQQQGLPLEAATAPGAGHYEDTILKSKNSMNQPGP
UniProt P10398: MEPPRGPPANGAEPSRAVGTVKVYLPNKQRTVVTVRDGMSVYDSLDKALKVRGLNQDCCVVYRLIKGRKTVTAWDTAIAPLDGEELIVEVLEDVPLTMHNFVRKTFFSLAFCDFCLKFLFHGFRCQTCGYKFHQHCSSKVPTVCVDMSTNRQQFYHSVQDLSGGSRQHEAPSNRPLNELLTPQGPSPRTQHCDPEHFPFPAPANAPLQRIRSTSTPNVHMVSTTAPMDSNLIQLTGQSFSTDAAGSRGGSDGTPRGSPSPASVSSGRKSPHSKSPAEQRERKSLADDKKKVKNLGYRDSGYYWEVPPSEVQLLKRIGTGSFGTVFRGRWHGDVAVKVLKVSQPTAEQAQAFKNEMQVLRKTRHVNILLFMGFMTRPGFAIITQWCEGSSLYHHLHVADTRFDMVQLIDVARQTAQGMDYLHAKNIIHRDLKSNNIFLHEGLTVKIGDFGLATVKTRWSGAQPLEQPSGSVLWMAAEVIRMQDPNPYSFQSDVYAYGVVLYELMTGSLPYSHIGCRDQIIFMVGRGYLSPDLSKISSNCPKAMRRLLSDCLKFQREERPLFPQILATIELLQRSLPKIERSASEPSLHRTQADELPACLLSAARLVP
UniProt O14965: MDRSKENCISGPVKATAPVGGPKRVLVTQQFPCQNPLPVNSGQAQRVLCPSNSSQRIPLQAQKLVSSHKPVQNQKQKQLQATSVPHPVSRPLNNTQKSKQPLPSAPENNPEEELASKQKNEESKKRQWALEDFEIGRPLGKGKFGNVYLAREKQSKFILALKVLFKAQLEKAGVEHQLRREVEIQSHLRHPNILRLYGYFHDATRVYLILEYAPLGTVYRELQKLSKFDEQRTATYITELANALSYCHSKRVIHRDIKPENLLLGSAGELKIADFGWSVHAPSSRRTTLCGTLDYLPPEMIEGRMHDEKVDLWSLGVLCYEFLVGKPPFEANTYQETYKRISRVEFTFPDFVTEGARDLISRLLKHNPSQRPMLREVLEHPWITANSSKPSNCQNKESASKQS
UniProt Q96GD4, whole entry: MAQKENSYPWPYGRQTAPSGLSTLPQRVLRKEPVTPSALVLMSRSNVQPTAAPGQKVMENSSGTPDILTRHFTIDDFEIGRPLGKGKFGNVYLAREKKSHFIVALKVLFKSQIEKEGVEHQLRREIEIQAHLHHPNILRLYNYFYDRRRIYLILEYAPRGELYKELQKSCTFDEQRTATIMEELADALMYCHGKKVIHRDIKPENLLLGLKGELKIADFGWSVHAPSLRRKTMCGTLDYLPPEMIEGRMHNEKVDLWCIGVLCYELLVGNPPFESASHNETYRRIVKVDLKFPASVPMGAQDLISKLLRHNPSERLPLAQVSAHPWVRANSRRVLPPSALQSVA
UniProt Q9UQB9: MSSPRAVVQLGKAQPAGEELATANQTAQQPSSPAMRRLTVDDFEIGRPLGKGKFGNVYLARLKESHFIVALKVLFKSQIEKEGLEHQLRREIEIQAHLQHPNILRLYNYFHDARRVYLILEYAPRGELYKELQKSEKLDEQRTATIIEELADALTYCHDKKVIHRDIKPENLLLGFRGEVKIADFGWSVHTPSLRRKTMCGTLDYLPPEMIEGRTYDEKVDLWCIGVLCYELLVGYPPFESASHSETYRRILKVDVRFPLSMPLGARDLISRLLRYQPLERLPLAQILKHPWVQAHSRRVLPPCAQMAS
UniProt P51451: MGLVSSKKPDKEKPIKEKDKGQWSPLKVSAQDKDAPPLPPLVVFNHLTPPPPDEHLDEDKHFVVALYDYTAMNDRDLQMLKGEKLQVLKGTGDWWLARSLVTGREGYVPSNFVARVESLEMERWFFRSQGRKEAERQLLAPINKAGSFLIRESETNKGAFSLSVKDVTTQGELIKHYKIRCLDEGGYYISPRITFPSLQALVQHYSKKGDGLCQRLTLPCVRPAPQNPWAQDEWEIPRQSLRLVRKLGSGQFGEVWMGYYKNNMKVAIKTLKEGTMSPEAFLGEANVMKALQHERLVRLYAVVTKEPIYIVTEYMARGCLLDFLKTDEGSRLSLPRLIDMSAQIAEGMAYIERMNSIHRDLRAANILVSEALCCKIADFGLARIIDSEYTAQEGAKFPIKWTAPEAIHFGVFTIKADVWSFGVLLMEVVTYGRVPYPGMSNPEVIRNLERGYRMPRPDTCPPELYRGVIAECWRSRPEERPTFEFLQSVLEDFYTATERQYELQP
UniProt P51813: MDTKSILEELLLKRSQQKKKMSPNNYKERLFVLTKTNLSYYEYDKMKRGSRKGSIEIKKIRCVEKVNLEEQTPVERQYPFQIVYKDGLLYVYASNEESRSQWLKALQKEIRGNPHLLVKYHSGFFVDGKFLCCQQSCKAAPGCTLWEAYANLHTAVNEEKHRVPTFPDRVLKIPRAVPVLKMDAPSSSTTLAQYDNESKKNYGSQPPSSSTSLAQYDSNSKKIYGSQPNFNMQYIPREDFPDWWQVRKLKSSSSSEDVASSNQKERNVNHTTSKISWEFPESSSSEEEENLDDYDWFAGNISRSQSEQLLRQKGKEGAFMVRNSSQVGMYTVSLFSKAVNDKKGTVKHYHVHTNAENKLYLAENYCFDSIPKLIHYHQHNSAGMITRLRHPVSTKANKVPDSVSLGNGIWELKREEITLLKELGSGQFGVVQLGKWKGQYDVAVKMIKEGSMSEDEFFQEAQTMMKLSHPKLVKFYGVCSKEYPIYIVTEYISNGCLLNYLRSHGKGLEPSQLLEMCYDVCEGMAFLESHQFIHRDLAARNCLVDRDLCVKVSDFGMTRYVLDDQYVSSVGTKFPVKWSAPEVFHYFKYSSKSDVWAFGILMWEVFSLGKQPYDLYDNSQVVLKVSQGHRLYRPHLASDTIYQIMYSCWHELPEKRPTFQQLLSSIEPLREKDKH
UniProt P15056, whole entry, looked up: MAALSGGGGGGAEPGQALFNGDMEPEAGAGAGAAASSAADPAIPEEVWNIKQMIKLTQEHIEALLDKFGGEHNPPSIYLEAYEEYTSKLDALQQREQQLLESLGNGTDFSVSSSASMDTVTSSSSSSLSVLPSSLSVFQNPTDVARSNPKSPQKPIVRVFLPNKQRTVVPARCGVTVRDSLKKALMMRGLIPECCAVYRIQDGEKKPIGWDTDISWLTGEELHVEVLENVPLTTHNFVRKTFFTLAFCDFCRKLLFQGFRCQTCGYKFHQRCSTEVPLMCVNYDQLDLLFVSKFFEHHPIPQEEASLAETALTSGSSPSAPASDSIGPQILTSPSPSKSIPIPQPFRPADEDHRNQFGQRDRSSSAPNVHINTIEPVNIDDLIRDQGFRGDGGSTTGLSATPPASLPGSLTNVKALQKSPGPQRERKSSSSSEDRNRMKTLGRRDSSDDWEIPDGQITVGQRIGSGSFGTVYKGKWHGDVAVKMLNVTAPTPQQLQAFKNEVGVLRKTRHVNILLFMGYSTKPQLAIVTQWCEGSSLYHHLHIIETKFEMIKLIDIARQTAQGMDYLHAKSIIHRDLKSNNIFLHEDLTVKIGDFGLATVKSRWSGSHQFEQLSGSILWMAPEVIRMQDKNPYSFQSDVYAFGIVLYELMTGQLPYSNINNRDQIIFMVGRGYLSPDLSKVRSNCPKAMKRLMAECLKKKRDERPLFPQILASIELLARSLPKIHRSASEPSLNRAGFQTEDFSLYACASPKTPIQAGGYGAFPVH

Legend:
Experiment in all cases: kinase-Nluc reporter destabilization hit call (1 = scored as downregulated) (binary); higher = compound decreases kinase abundance
Settings in all cases: K562; 2-18 h
ABL1 = ABL1 (UniProt P00519)
AKT1 = AKT1 (UniProt P31749)
ALK = ALK (UniProt Q9UM73)
ARAF = ARAF (UniProt P10398)
AURKA = AURKA (UniProt O14965)
AURKB = AURKB (UniProt Q96GD4)
AURKC = AURKC (UniProt Q9UQB9)
BLK = BLK (UniProt P51451)
BMX = BMX (UniProt P51813)
BRAF = BRAF (UniProt P15056)

Measured: kinase-Nluc reporter destabilization hit call

CC(C)(C)Cc1[nH]nc2c1[C@@](C)(c1ccccc1)C1=C(CC(C)(C)CC1=O)N2 (10 µM)
inactive: ABL1 = 0 | AKT1 = 0 | ALK 0 | ARAF 0 | AURKA 0 | AURKB 0 | AURKC 0 | BLK 0 | BMX 0 | BRAF 0

Fc1ccc2[nH]ccc2c1-c1nc(N2CCOCC2)c2sc(CN3CCN(CC4CC4)CC3)cc2n1 (10 µM)
inactive: ABL1 = 0 | AKT1 = 0 | ALK 0 | ARAF 0 | AURKA 0 | AURKB 0 | AURKC 0 | BLK 0 | BMX 0 | BRAF 0

c1nn(C2CCOCC2)cc1Nc1ncc2nnn(-c3ccc4cn[nH]c4c3)c2n1 (10 µM)
inactive: ABL1 = 0 | AKT1 = 0 | ALK 0 | ARAF 0 | AURKA 0 | AURKB 0 | AURKC 0 | BLK 0 | BMX 0 | BRAF 0

C=CC(=O)N1CCN(C(=O)CNc2cc(I)c(Cl)cc2O)CC1 [K-Ras(G12C) inhibitor 12] (10 µM)
inactive: ABL1 = 0 | AKT1 = 0 | ALK 0 | ARAF 0 | AURKA 0 | AURKB 0 | AURKC 0 | BLK 0 | BMX 0 | BRAF 0

COc1cc2ncnc(Oc3ccc(CC(=O)Nc4cnn(C(C)C)c4)cc3)c2cc1OC (10 µM)
inactive: ABL1 = 0 | AKT1 = 0 | ALK 0 | ARAF 0 | AURKA 0 | AURKB 0 | AURKC 0 | BLK 0 | BMX 0 | BRAF 0

CCCCCC(=O)N[C@@H](Cc1ccc(O)cc1)C(=O)OC (10 µM)
inactive: ABL1 = 0 | AKT1 = 0 | ALK 0 | ARAF 0 | AURKA 0 | AURKB 0 | AURKC 0 | BLK 0 | BMX 0 | BRAF 0

Cc1ccc(C)c(OCCn2cc(C(=O)O)c3ccccc32)c1 (10 µM)
inactive: ABL1 = 0 | AKT1 = 0 | ALK 0 | ARAF 0 | AURKA 0 | AURKB 0 | AURKC 0 | BLK 0 | BMX 0 | BRAF 0

COc1cc(-c2oc3cc(O)cc(O)c3c(=O)c2O)ccc1O [Isorhamnetin] (10 µM)
inactive: ABL1 = 0 | AKT1 = 0 | ALK 0 | ARAF 0 | AURKA 0 | AURKB 0 | AURKC 0 | BLK 0 | BMX 0 | BRAF 0

Cc1cccc(-c2[nH]ncc2-c2ccnc3ccccc23)n1 (10 µM)
inactive: ABL1 = 0 | AKT1 = 0 | ALK 0 | ARAF 0 | AURKA 0 | AURKB 0 | AURKC 0 | BLK 0 | BMX 0 | BRAF 0

COc1ccc2c3n(c(=NC(=O)c4cccnc4)nc2c1OC)CCN3 (2 µM)
inactive: ABL1 = 0 | AKT1 = 0 | ALK 0 | ARAF 0 | AURKA 0 | AURKB 0 | AURKC 0 | BLK 0 | BMX 0 | BRAF 0

Cc1cc(Nc2cc(N)ncn2)c(=O)n2c1C(=O)NC21CCCCC1 [Tomivosertib] (10 µM)
inactive: ABL1 = 0 | AKT1 = 0 | ALK 0 | ARAF 0 | AURKA 0 | AURKB 0 | AURKC 0 | BLK 0 | BMX 0 | BRAF 0

Nc1nc(NCCNc2ncc(-n3ccnc3)c(-c3ccc(Cl)cc3Cl)n2)ccc1[N+](=O)[O-] (2.5 µM)
inactive: ABL1 = 0 | AKT1 = 0 | ALK 0 | ARAF 0 | AURKA 0 | AURKB 0 | AURKC 0 | BLK 0 | BMX 0 | BRAF 0

CO[C@H]1C[C@@H]2CC[C@@H](C)[C@@](O)(O2)C(=O)C(=O)N2CCCC[C@H]2C(=O)O[C@H]([C@H](C)C[C@@H]2CC[C@@H](OC(=O)C(C)(CO)CO)[C@H](OC)C2)CC(=O)[C@H](C)/C=C(\C)[C@@H](O)[C@@H](OC)C(=O)[C@H](C)C[C@H](C)/C=C/C=C/C=C/1C [Temsirolimus] (2.5 µM)
inactive: ABL1 = 0 | AKT1 = 0 | ALK 0 | ARAF 0 | AURKA 0 | AURKB 0 | AURKC 0 | BLK 0 | BMX 0 | BRAF 0

NC[C@@](O)(c1ccc(Cl)cc1)c1ccc(-c2cn[nH]c2)cc1 (10 µM)
inactive: ABL1 = 0 | AKT1 = 0 | ALK 0 | ARAF 0 | AURKA 0 | AURKB 0 | AURKC 0 | BLK 0 | BMX 0 | BRAF 0

COc1cc2cc(Oc3ccc4ccc(=O)oc4c3)c(=O)oc2cc1O [Daphnoretin] (10 µM)
inactive: ABL1 = 0 | AKT1 = 0 | ALK 0 | ARAF 0 | AURKA 0 | AURKB 0 | AURKC 0 | BLK 0 | BMX 0 | BRAF 0

C[C@@H](Nc1ncnc2[nH]c(-c3ccc(O)cc3)cc12)c1ccccc1 (2.5 µM)
inactive: ABL1 = 0 | AKT1 = 0 | ALK 0 | ARAF 0 | AURKA 0 | AURKB 0 | AURKC 0 | BLK 0 | BMX 0 | BRAF 0

CC(C)n1c([C@H](C)Nc2ncnc(N)c2C#N)cc2cccc(-c3ccc(=O)n(C)c3)c2c1=O (10 µM)
inactive: ABL1 = 0 | AKT1 = 0 | ALK 0 | ARAF 0 | AURKA 0 | AURKB 0 | AURKC 0 | BLK 0 | BMX 0 | BRAF 0

CCNC(=O)C#Cc1ccc2c(C(=Nc3ccc(CN(C)C)cc3)c3ccccc3)c(O)[nH]c2c1 (2.5 µM)
inactive: ABL1 = 0 | AKT1 = 0 | ALK 0 | ARAF 0 | AURKA 0 | AURKB 0 | AURKC 0 | BLK 0 | BMX 0 | BRAF 0

Cn1c(CNc2cccc(C(=O)NCc3ccccc3C(F)(F)F)c2)nnc1-c1ccncc1 (10 µM)
inactive: ABL1 = 0 | AKT1 = 0 | ALK 0 | ARAF 0 | AURKA 0 | AURKB 0 | AURKC 0 | BLK 0 | BMX 0 | BRAF 0

CO[C@H]1CC[C@H](N2C(=O)CNc3ncc(-c4ccc(C(C)(C)O)nc4)nc32)CC1 (2.5 µM)
inactive: ABL1 = 0 | AKT1 = 0 | ALK 0 | ARAF 0 | AURKA 0 | AURKB 0 | AURKC 0 | BLK 0 | BMX 0 | BRAF 0

CC(C)n1ncnc1-c1cn2c(n1)-c1ccc(O[C@@H](C)C(N)=O)cc1OCC2 (10 µM)
inactive: ABL1 = 0 | AKT1 = 0 | ALK 0 | ARAF 0 | AURKA 0 | AURKB 0 | AURKC 0 | BLK 0 | BMX 0 | BRAF 0

CC(Cc1ccc(O)c(O)c1)C(C)Cc1ccc(O)c(O)c1 (stereo not given) [Nordihydroguaiaretic acid] (2.5 µM)
inactive: ABL1 = 0 | AKT1 = 0 | ALK 0 | ARAF 0 | AURKA 0 | AURKB 0 | AURKC 0 | BLK 0 | BMX 0 | BRAF 0

O=c1[nH]ccc2nc(-c3ccc(CN4CCC(c5nc(-c6ccccn6)n[nH]5)CC4)cc3)c(-c3ccccc3)cc12 (10 µM)
inactive: ABL1 = 0 | AKT1 = 0 | ALK 0 | ARAF 0 | AURKA 0 | AURKB 0 | AURKC 0 | BLK 0 | BMX 0 | BRAF 0

Reprinted at random: 2 records from the list
Cn1c(CNc2cccc(C(=O)NCc3ccccc3C(F)(F)F)c2)nnc1-c1ccncc1 (10 µM)
inactive: ABL1 = 0 | AKT1 = 0 | ALK 0 | ARAF 0 | AURKA 0 | AURKB 0 | AURKC 0 | BLK 0 | BMX 0 | BRAF 0

CO[C@H]1CC[C@H](N2C(=O)CNc3ncc(-c4ccc(C(C)(C)O)nc4)nc32)CC1 (2.5 µM)
inactive: ABL1 = 0 | AKT1 = 0 | ALK 0 | ARAF 0 | AURKA 0 | AURKB 0 | AURKC 0 | BLK 0 | BMX 0 | BRAF 0

(listing goes on)

CC(C)n1c(=O)n(C)c2cnc3cc(F)c(-c4ccc(OCCCN5CCCCC5)nc4)cc3c21 (10 µM)
inactive: ABL1 = 0 | AKT1 = 0 | ALK 0 | ARAF 0 | AURKA 0 | AURKB 0 | AURKC 0 | BLK 0 | BMX 0 | BRAF 0

O=c1cc(-c2ccccc2)oc2cc(O[C@@H]3O[C@H](CO[C@@H]4O[C@H](CO)[C@@H](O)[C@H](O)[C@H]4O)[C@@H](O)[C@H](O)[C@H]3O)c(O)c(O)c12 [Oroxin B] (10 µM)
inactive: ABL1 = 0 | AKT1 = 0 | ALK 0 | ARAF 0 | AURKA 0 | AURKB 0 | AURKC 0 | BLK 0 | BMX 0 | BRAF 0

Cc1cc(O)c2c(c1)C(=O)c1cccc(O)c1C2=O [Chrysophanol] (2 µM)
inactive: ABL1 = 0 | AKT1 = 0 | ALK 0 | ARAF 0 | AURKA 0 | AURKB 0 | AURKC 0 | BLK 0 | BMX 0 | BRAF 0

C=CC(=O)Nc1cc(Nc2nccc(-c3cn(C)c4ccccc34)n2)c(OC)cc1OCCN(C)C [Rezivertinib] (2.5 µM)
inactive: ABL1 = 0 | AKT1 = 0 | ALK 0 | ARAF 0 | AURKA 0 | AURKB 0 | AURKC 0 | BLK 0 | BMX 0 | BRAF 0

Cc1cc(C(=O)Nc2nc3cccc(Cl)c3n2[C@@H]2CCCCN(C(=O)/C=C/CN(C)C)C2)ccn1 [Nazartinib] (10 µM)
inactive: ABL1 = 0 | AKT1 = 0 | ALK 0 | ARAF 0 | AURKA 0 | AURKB 0 | AURKC 0 | BLK 0 | BMX 0 | BRAF 0
